Results: PMC6803371
These are yes or no findings as the source states them, for the method shown. Binding seen in cells or lysates may run through a third protein. A result given as binding can be weak or reduced; the word gives no strength.

Chains of the proteins cited; added tags and fusions are not shown.
UniProt Q62318: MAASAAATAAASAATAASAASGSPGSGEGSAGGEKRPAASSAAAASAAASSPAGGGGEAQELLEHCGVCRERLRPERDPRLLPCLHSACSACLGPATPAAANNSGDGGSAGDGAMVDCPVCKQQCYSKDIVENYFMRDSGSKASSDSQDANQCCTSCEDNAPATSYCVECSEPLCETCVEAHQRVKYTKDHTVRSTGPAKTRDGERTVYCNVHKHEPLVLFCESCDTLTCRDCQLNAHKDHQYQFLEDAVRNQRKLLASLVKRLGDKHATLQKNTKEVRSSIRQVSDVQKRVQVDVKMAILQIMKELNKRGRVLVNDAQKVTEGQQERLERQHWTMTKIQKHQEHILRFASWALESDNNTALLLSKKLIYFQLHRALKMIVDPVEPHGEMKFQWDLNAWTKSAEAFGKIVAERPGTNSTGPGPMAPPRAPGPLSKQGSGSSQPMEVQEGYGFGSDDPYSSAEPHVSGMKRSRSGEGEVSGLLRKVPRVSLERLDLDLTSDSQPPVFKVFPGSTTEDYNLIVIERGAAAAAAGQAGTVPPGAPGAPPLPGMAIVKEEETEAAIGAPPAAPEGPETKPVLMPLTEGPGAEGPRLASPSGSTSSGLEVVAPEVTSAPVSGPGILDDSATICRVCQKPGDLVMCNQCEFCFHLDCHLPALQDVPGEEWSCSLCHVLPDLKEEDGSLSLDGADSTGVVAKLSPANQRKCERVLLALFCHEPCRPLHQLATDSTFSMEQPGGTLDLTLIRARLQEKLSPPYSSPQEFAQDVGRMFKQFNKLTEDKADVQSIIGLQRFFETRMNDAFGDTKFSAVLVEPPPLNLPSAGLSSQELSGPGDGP

Target: TRIM28 (mouse (endogenous in mESCs)) (UniProt Q62318)
Assay: co-IP; RIPA lysates of mESCs overexpressing FLAG-ZFP708 variants; immunoprecipitated with anti-Trim28 antibody, western blot with anti-Flag antibody; empty vector as negative control

Substance: FLAG-tagged full-length ZFP708 (from UniProt F8VPP0)
- binding: binds
